For at least one compound, name, drawing or mass did not settle the structure.
How the values were obtained:
TSC2 / mTORC1 = experiment: TSC2 phosphorylation and mTORC1 activation (planned); assay type: cell-based; conditions: expected
cancer cells = experiment: Taxol induced cancer cell death with pathway inhibitors/activators (FIGS. 4A-4D); assay type: cell-based; conditions: added to Taxol
Source text: The molecular mechanism involved in C6-ceramide induced chemosensitization effects was examined by focusing on taxol.
To further confirm the requirement of AMPK activation in this synergistic effect, siRNA directed against AMPK can be used.

[1] = tested on: L3.6 pancreatic cancer cells; experiment: Cell viability / cell death (MTT) in L3.6 pancreatic cancer cells; assay type: cell-based, human; conditions: LY 1 μM, rapamycin 100 nM, U0126 1 μg/ml; 48 hours
Description: L3.6 pancreatic cancer cells, cultured either in the basic DMEM medium or with 10% FBS, were treated with the indicated doses of taxol in the presence or absence of C6-ceramide (10 μg/ml) for 48 hours and cell viability was detected by MTT assay (FIGS. 1A-1B). L3.6 cells, cultured either in basic DMEM medium or with 10% FBS, were treated with the indicated dose of C6-ceramide in the presence or absence of taxol (1.5 μg/ml) for 48 hours and cell viability was detected by MTT assay (FIGS. 1C-1D). Mitomycin C (10 μg/ml) was always present in the media to prevent cell proliferation from occurring. The data represents the mean±SD of at least triplicate experiments. *P<0.05 versus group without C6-ceramide presents (FIGS. 1A-1B). **P<0.05 versus group without taxol presents (FIGS. 1C-1D).
FIGS. 3A-3H show synergistic anti-tumor effects of C6-ceramide and gemcitabine in vivo and in vitro. SCID/Beige/Taconic nude male mice (22-25 g; 6-8 weeks old) were ear tagged and randomized into 4 different groups (Control, Ceramide, gemcitabine, Ceramide+gemcitabine) combining 5 mice each prior to inoculation subcutaneous (s.c.) with 2×10^6 L3.6 cells in a 0.1 ml volume into the internal surface of the right thigh. […] Mouse survival (FIGS. 3A, 3B, and 3E) and tumor volume (in cm^3; FIGS. 3C and 3D) were recorded (FIG. 3E). […]
Pancreatic cancer cell lines L3.6 cells were left untreated or treated with gemcitabine (Gem, 1 μg/ml) or taxol (1.5 μg/ml) in the presence or absence of C6-ceramide (10 μg/ml) for 2, 4 and 6 hours, AKT/mTORC1 and ERK activation were detected by Western Blot using indicated antibodies (FIGS. 5A and 5C). p-AKT (S473) and p-ERK at 4 hour time intervals for each treatment quantified (FIGS. 5B and 5D). L3.6 cells were pretreated with various inhibitors including PI3K/AKT inhibitor LY 294002 (LY, 1 μM), mTORC1 inhibitor rapamycin (100 nM), MEK/ERK inhibitor U0126 (1 μg/ml) or gemcitabine (1 μg/ml) for 48 hours, cell death was detected 48 hours later (FIG. 5E). The effects of the various inhibitors described above on AKT/mTORC1 and ERK activation were also detected by Western Blots using commercial available antibodies (FIG. 5F). *P<0.05 versus group without C6-ceramide presents. […]
Cell viability was measured by the 3-[4m5-dimethylthylthiazol-2-y]-2.5 diphenyltetrazolium bromide (MTT) method, as described in Cao et al. (2009) Sci. Signal, 2:RA17. […] The medium was subsequently aspirated from each well and 150 ul of DMSO (Sigma, St. Louis, Mo.) was added to dissolve formazan crystals and the absorbance of each well was obtained using a Dynatech MR5000 plate reader at a test wavelength of 490 nm with a reference wavelength of 630 nm. […]

Compound	Taxol induced TSC2 phosphorylation (S1462) and mTORC1 activation (TSC2 / mTORC1)	effect on Taxol induced cancer cell death (cancer cells)	effect on gemcitabine induced L3.6 cell death [1]	effect on taxol induced L3.6 cell death [1]
O=c1cc(N2CCOCC2)oc2c(-c3ccccc3)cccc12 [LY 294002]	block	enhance	largely enhanced	largely enhanced
CO[C@H]1C[C@@H]2CC[C@@H](C)[C@@](O)(O2)C(=O)C(=O)N2CCCC[C@H]2C(=O)O[C@H]([C@H](C)C[C@@H]2CC[C@@H](O)[C@H](OC)C2)CC(=O)[C@H](C)/C=C(\C)[C@@H](O)[C@@H](OC)C(=O)[C@H](C)C[C@H](C)/C=C/C=C/C=C/1C [rapamycin]	–	enhance	largely enhanced	largely enhanced

Reference: US9974760B2, “Compositions and methods for treating cancer” (Chemo-Enhanced LLC, priority 2011, dated 2018)
